# In patent publication US6555676B2, “Biologically active phosphotriester-type compounds” (Centre National de la Recherche Scientifique, priority 1992, dated 2003):
# For at least one compound, name, drawing or mass did not settle the structure.
# Legend:
# [1] = tested on: non-infected CEM-SS cells; test: Toxic effect on non-infected cells (MTT/formazan), CEM-SS; format: cell-based, Human; conditions: 50% inhibition of formazan formation, 5 days
# Protocol: The toxic effect on non-infected CEMs is assessed by a calorimetric reaction based on the capacity of living cells to reduce 3-(4,5-dimethylthiazol-2-yl)-2,5-diphenyltetrazolium bromide into formazan after incubation for 5 days in the presence of various concentrations of the compounds.
# [2] = tested on: non-infected MT-4 cells; test: Toxic effect on non-infected cells (MTT/formazan), MT-4; format: cell-based, Human; conditions: 50% inhibition of formazan formation
# [3] = tested on: HIV-1 (LAI isolate); test: Anti-HIV-1 activity (RTase in culture supernatant) in CEM-TK− cells; format: cell-based; conditions: lowest concentration reducing RTase production by at least 50%, 5 days
# Protocol: (§1) HIV-1 replication (LAI isolate) in CEM cells is measured by assaying the reverse transcriptase (RTase) in the culture supernatant after infection for 5 days. This activity reflects the presence of the virus released by the cells. After adsorption of the virus, the test compounds are added, at various concentrations, to the culture medium.
# (§2) Antiviral activity is expressed as the lowest concentration of compound which reduces the production of RTase by at least 50% (ED50)
# (§3) The compounds were tested as described in Example 5 above.
# (§4) The iso-SATE pronucleotides of Examples 16A and 16B were evaluated for their inhibitory effects on the replication of HIV-1 in CEM-SS and in thymidine-kinase deficient cell lines (CEM/TD). For comparison, the parent nucleosides ddA and d4T, and the corresponding bis(SATE) phosphotriesters bis(tBuSATE)ddAMP (the compound of Example 9) and bis(tBuSATE)d4TMP, were evaluated in the same experiments.
# [4] = tested on: HIV-1 (LAI isolate); test: Anti-HIV-1 activity (RTase in culture supernatant) in CEM-SS cells; format: cell-based; conditions: lowest concentration reducing RTase production by at least 50%, 5 days
# Protocol: as §1, §2, §3, §4
SMILES,CD50 [1],CD50 [2],ED50 [3],ED50 [4]
"CC(=O)SCCOP(=O)(OCCSC(C)=O)OC[C@@H]1CC[C@H](n2cnc3c(N)ncnc32)O1 [Bis(SATE)ddAMP, O-(2′,3′-Dideoxyadenosin-5′-yl)—O,O′-bis(S-acetyl-2-thioethyl)-phosphate]",(CD50 2.4 10^−5 M),(CD50 1.6 10^−5 M),,
"CC(=O)SCCOP(=O)(OCCSC(C)=O)OC[C@@H]1CC[C@H](n2cc(C)c(=O)[nH]c2=O)O1 [Bis(SATE)ddTMP, O-(2′,3′-Dideoxythymidin-5′-yl)-O,O′-bis(S-acetyl-2-thioethyl)-phosphate]",(CD50 8.5 10^−5 M),,5 10^−7 M,1.7 10^−6 M
